{"source": "PubChem BioAssay AID1508588 – Peter MacCallum Cancer Centre, 2020", "screen": "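Knock-downs boosting vemurafenib effects on melanoma cell growth or lactate release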 (primary screen)", "cells": "human WM266.4 melanoma cells (BRAF V600 mutant)", "knock-down reagent": "siRNA pool against human genes, 40 nM", "duration": "96 h from transfection to read-out", "treatment": "vemurafenib 300 nM (about IC25), added 48 h after transfection, for 48 h; comparison arm got DMSO vehicle only", "detection": "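Cell gain (DAPI nuclei at end minus before drug, mean of two replicates) and medium lactate by absorbance per cell, both as ratio to non-targeting siRNA, also grouped into fold-change classes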", "scale": "cell gain with vemurafenib: higher = more cell gain than with non-targeting siRNA; lactate per cell with vemurafenib: higher = more lactate made per cell", "hit rule": "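a knock-down counts as enhancing when its fold-change classes with vehicle and with vemurafenib, taken together, show a stronger drug effect on cell gain or lactate per cell; exact class pairs not stated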", "calls": "active = enhances vemurafenib effect; inactive = no enhancement seen", "note": "Shown is an unselected part of about 18,000 reagents. In the full data, 790 (4.4%) are marked active. 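Calls rest on a combination of fold-change classes in drug and vehicle arms, not all shown here.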"}
{"target gene": "CDH10", "cell gain with vemurafenib": 0.62, "lactate per cell with vemurafenib": 0.41, "outcome": "inactive"}
{"target gene": "MAP6", "cell gain with vemurafenib": 0.72, "lactate per cell with vemurafenib": 1.18, "outcome": "inactive"}
{"target gene": "BTN1A1", "cell gain with vemurafenib": 0.59, "lactate per cell with vemurafenib": 1.14, "outcome": "inactive"}
{"target gene": "ESCO1", "cell gain with vemurafenib": 0.31, "lactate per cell with vemurafenib": 1.79, "outcome": "inactive"}
{"target gene": "PYCR2", "cell gain with vemurafenib": 0.32, "lactate per cell with vemurafenib": 1.62, "outcome": "inactive"}
{"target gene": "TPD52L1", "cell gain with vemurafenib": 0.31, "lactate per cell with vemurafenib": 0.88, "outcome": "inactive"}
{"target gene": "IFT81", "cell gain with vemurafenib": 0.31, "lactate per cell with vemurafenib": 1.49, "outcome": "inactive"}
{"target gene": "LMNB1", "cell gain with vemurafenib": 0.3, "lactate per cell with vemurafenib": 0.69, "outcome": "inactive"}
{"target gene": "ADORA1", "cell gain with vemurafenib": 0.27, "lactate per cell with vemurafenib": 1.14, "outcome": "inactive"}
{"target gene": "IPO7", "cell gain with vemurafenib": 0.86, "lactate per cell with vemurafenib": 0.66, "outcome": "inactive"}

Targets above whose gene name begins with I or i (2):
{"target gene": "IFT81", "cell gain with vemurafenib": 0.31, "lactate per cell with vemurafenib": 1.49, "outcome": "inactive"}
{"target gene": "IPO7", "cell gain with vemurafenib": 0.86, "lactate per cell with vemurafenib": 0.66, "outcome": "inactive"}

Additional results follow:
{"target gene": "TBC1D1", "cell gain with vemurafenib": 0.64, "lactate per cell with vemurafenib": 1, "outcome": "inactive"}
{"target gene": "AIPL1", "cell gain with vemurafenib": 0.42, "lactate per cell with vemurafenib": 0.76, "outcome": "inactive"}
{"target gene": "TPM2", "cell gain with vemurafenib": 0.74, "lactate per cell with vemurafenib": 0.14, "outcome": "active"}
{"target gene": "EIF2S1", "cell gain with vemurafenib": 0.02, "lactate per cell with vemurafenib": 2.77, "outcome": "inactive"}
{"target gene": "PRKD1", "cell gain with vemurafenib": 0.51, "lactate per cell with vemurafenib": 0.52, "outcome": "inactive"}
{"target gene": "TMPO", "cell gain with vemurafenib": 0.28, "lactate per cell with vemurafenib": 0.5, "outcome": "inactive"}
